The other results are listed elsewhere or left out.

Protein sequences, listed by entry. Tags and fused reporters are not part of them.
UniProt Q0JBA9, entry or part of it: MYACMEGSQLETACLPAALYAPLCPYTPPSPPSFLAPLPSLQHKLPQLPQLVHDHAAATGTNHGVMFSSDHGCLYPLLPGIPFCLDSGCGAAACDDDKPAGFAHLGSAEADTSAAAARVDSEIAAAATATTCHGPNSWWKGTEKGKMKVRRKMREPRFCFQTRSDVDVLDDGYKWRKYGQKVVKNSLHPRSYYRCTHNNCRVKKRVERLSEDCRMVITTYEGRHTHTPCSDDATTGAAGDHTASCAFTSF

The values below come from article PMC7819943, “Rice protein-binding microarrays: a tool to detect cis-acting elements near promoter regions in rice”.

For the experiment, the target named is OsWRKY34 (Oryza sativa, UniProt Q0JBA9 1-250). Nature of the experiment: protein-binding microarray (RPBM); PBS, 2% BSA, 51.3 ng/ul salmon testes DNA, 50 uM zinc acetate, 200 nM TF, 25 C, 1 h; high values mean tight binding. The conditions noted are these: protein: recombinant; tags: N-terminal polyhistidine and DsRed monomer fusion (pET32a); label: CyDye5-dUTP incorporated in the synthesized complementary strand; 3' TTTTT single-stranded linker to array surface; dsDNA, one strand shown. A digest of the protocol:
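Per-feature fluorescence intensity (arbitrary units), read on an Axon 4000B scanner, is the binding signal. Transcription factors carrying an N-terminal polyhistidine tag and DsRed fusion were expressed in E. coli BL21-CodonPlus and purified on Ni–NTA. A custom Agilent array, made double-stranded by primer extension with Cy5-dUTP and blocked with 2% BSA, was incubated with 200 nM protein in PBS, 2% BSA, salmon testes DNA and 50 µM zinc acetate at 25 °C for 1 h and then washed.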
Turning to “CCACCGCTTTAGGCGCAGCCGACCGGAATTCACTCTCTCACGGAGTCACCTAGTGCAG”, the binding signal was 9640 fluorescence intensity (a.u.).
Next, “GTGTGTTTCTCCTTGCTTATTTTGTCCATTCATTCATTCTCGGAGTCACCTAGTGCAG”: 13800 fluorescence intensity (a.u.).
Take “GTTTGTTGATGTTATTTCTTGGATTGAGGCGTTTGTCAATCGGAGTCACCTAGTGCAG”: the binding signal is 8040 fluorescence intensity (a.u.).
Take “CGTATCCCACACCTCGCTCACCTCACTGCCCTCGCTTTCGCGGAGTCACCTAGTGCAG”: the binding signal is 9500 fluorescence intensity (a.u.).
For “GTTAATCTATGGCTCTTTTTTTTTTCCGCCGGAACGGTTCCGGAGTCACCTAGTGCAG”, the binding signal was 10800 fluorescence intensity (a.u.).
On to “AGGTTGCTCTGGATTTTTGCGCGTGTCGCTGTTGGTTTTGCGGAGTCACCTAGTGCAG”, for which the binding signal is 8050 fluorescence intensity (a.u.).
Take “AACTTCATCTTGCATTCATATTTTGTCAGCCTTATCTAACCGGAGTCACCTAGTGCAG”: the binding signal was 11200 fluorescence intensity (a.u.).
With “CGTTGGCAGTTAATCCGTAACCTTAGGTTGAGCATATACTCGGAGTCACCTAGTGCAG”, the binding signal was 8600 fluorescence intensity (a.u.).
In the case of “TTTGTGATTAGATCTGTCTGTCCTTTTTCGGTTGAACGTTCGGAGTCACCTAGTGCAG”, the binding signal is 10800 fluorescence intensity (a.u.).
Next, “GAACAAAGTGACCAGCGTCCTTTCATGCCAGCTACAAACACGGAGTCACCTAGTGCAG”: 9060 fluorescence intensity (a.u.); “CTGGAGGATCTTCACAACACCGGTATCATCTCATCTCATCCGGAGTCACCTAGTGCAG”: 12400 fluorescence intensity (a.u.).
Take “ACTGCTTGGTCATTGTCGGATTCTCCTGTTGCCCTATGGTCGGAGTCACCTAGTGCAG”: the binding signal is 10100 fluorescence intensity (a.u.).
Next, “ACCATGACATGTCTTCTACCACCCGATCACTTATGCTTTCCGGAGTCACCTAGTGCAG”: 10500 fluorescence intensity (a.u.); “ATCTCCCTGAAGATGTGTGCTTTGTGATGAATTTTTTATACGGAGTCACCTAGTGCAG”: 8060 fluorescence intensity (a.u.).
As for “ATCGCTGTCACGTTTTCCATCATCTTCCCCATCTACACGTCGGAGTCACCTAGTGCAG”, the binding signal is 8030 fluorescence intensity (a.u.).
For the sequence “TTCTCTTCCTTTCCCCTGCCCTTGCACCGCCGCCGCCTTGCGGAGTCACCTAGTGCAG”, the binding signal is 8160 fluorescence intensity (a.u.).
For “GCATAAGAAAGGTCAATCTCATTCTCATCTAACCAACCCTCGGAGTCACCTAGTGCAG”, the binding signal is 8100 fluorescence intensity (a.u.).
As to “TTTCTTTGTGTTTTGTTTCCTTGTAGGGTATGCTAGATCTCGGAGTCACCTAGTGCAG”, the binding signal is 9740 fluorescence intensity (a.u.).
Turning to “GCTCGCTTACCTGCTCGCGTTCCATATATCCAGCTGCAGTCGGAGTCACCTAGTGCAG”, the binding signal was 9160 fluorescence intensity (a.u.).
With “CGAAACAGTACACAATCAGCGGGTGGGTGATCTATCGATACGGAGTCACCTAGTGCAG”, the binding signal was 8810 fluorescence intensity (a.u.).
“AACAGCTCTCGATCTGATCGTCCCCACACCGCACGCTGACCGGAGTCACCTAGTGCAG”: the binding signal is 9930 fluorescence intensity (a.u.).
“ATATATATATATATATATATAGACGTATTCCTGTATCCGCCGGAGTCACCTAGTGCAG”: the binding signal is 21000 fluorescence intensity (a.u.).
Turning to “CGGAATATATCCATGGGTGGCCTTGTTTTGAAGATTTAATCGGAGTCACCTAGTGCAG”, the binding signal is 8990 fluorescence intensity (a.u.).
“ATCTCAAGGCTTCCATAATTTACTTACCATGTGTTTTGACCGGAGTCACCTAGTGCAG”: the binding signal is 8950 fluorescence intensity (a.u.).
Consider “ATAACTAGCCCAACACCACGTCCGTTCGACCGTCCCCATCCGGAGTCACCTAGTGCAG”, for which the binding signal was 10000 fluorescence intensity (a.u.).
Take “TTATAGCCATTGTACTCCTCGTCTACTCCTTAGGATGTTGCGGAGTCACCTAGTGCAG”: the binding signal is 8580 fluorescence intensity (a.u.).
As for “TCTTTATTTATGCCCGTCGTTCAGTTAGTGGTGGAATTATCGGAGTCACCTAGTGCAG”, the figure is 8060 fluorescence intensity (a.u.).
As for “TACGGAATTTCTCGAACAGAATAGTTTTCATGTTTTTCACCGGAGTCACCTAGTGCAG”, the figure is 8100 fluorescence intensity (a.u.); as for “CCACGCATACGCTTTCCGTACTAATAATTGTTACTTTTTACGGAGTCACCTAGTGCAG”, 8500 fluorescence intensity (a.u.).
For “TCCCTTTCCTTTGCGCGCATTTTTTTTTTGTCAGGAAACACGGAGTCACCTAGTGCAG”, the binding signal was 10600 fluorescence intensity (a.u.).
As for “GGCAGTATTTTCATTTTCTTTATTTAATGAACTATTTTCTCGGAGTCACCTAGTGCAG”, the figure is 9600 fluorescence intensity (a.u.); as for “CTCCTCACCTCTTCTTGTTCTTCTTCTCTCTCTCTTGTCACGGAGTCACCTAGTGCAG”, 10400 fluorescence intensity (a.u.).
With “AAATCGGCTCCACCTTCCCTGTCACCATGCTAATCTTTCCCGGAGTCACCTAGTGCAG”, the binding signal was 8360 fluorescence intensity (a.u.).
Regarding “GGCCTGTATGTAGTTATATATTTTTTCATCAATTTATGCTCGGAGTCACCTAGTGCAG”, the binding signal was 8250 fluorescence intensity (a.u.).
As for “ATATCACTTCACAAACATGCAAGTTCAAATTTGACTTCTACGGAGTCACCTAGTGCAG”, the binding signal was 8400 fluorescence intensity (a.u.).
As to “AGGTAGCCATGCTACGGCGTCTCGCTTTTCTCTTTTTTGACGGAGTCACCTAGTGCAG”, the binding signal was 9110 fluorescence intensity (a.u.).
Next, “AGACCCATTTACATTTCGCAGCAAAGCCATCGTGTATTCACGGAGTCACCTAGTGCAG”: 8320 fluorescence intensity (a.u.).
As to “TTTCCACCTATACTTTGATGATCAGCGCTTCCTATTCCACCGGAGTCACCTAGTGCAG”, the binding signal is 8670 fluorescence intensity (a.u.).
Consider “CCTCTTTCCTTCAACGAAGCTTCAACGACGCGCGCGTTCTCGGAGTCACCTAGTGCAG”, for which the binding signal was 8090 fluorescence intensity (a.u.).
“ATCACGCAAACAAGATGTGGCCCGTATCGGAGATTCCCTCCGGAGTCACCTAGTGCAG”: the binding signal was 8760 fluorescence intensity (a.u.).
Take “CCGCCGCGGCCGCGCGTTTCTCCTGCACGCCACGACCCTTCGGAGTCACCTAGTGCAG”: the binding signal is 8120 fluorescence intensity (a.u.).
As for “ATGATGCAATTGTGGGTCTAGAATTTAGGGGTTGTTTGGTCGGAGTCACCTAGTGCAG”, the figure is 9790 fluorescence intensity (a.u.); as for “CCCACATTTTTTTGTCACTTACATGTGGGCCCCACATATTCGGAGTCACCTAGTGCAG”, 8070 fluorescence intensity (a.u.).
With “AATCTCACTTTTCTTCACTCTCTTCTCTTACCTTTTTCACCGGAGTCACCTAGTGCAG”, the binding signal is 12000 fluorescence intensity (a.u.).
Next, “CTATCCCAATTCCTCTTGCCACACACCACTTATCCGCTGCCGGAGTCACCTAGTGCAG”: 8650 fluorescence intensity (a.u.).
Turning to “TGCATTCAGTTTGATTGGTTGCTTTGTTCAGAGCTGTTTCCGGAGTCACCTAGTGCAG”, the binding signal is 8070 fluorescence intensity (a.u.).
Next, “TTAATGTATGTTATAACATCTTGGCATCACATGTACTATCCGGAGTCACCTAGTGCAG”: 9810 fluorescence intensity (a.u.); “AGGGGATGGGGATGGGGATGGAGACGGGGACTTGGAACGACGGAGTCACCTAGTGCAG”: 11600 fluorescence intensity (a.u.).
For “GATTTTTCTTGCCATGTGGTTGATGTCTTTTAACATAGTACGGAGTCACCTAGTGCAG”, the binding signal is 10300 fluorescence intensity (a.u.).
Consider “GCTATGTTAGTTATGAACTACTTGTGGTGTTGTTTTTAGTCGGAGTCACCTAGTGCAG”, for which the binding signal was 11200 fluorescence intensity (a.u.).
Take “AATCACGCGCTAATGGATCGTTCCTTTTTCTATGCAGACACGGAGTCACCTAGTGCAG”: the binding signal was 10200 fluorescence intensity (a.u.).
Consider “GATGTACTGAACTGTTTTTTTTTTCGTTTTTAATTTCTAGCGGAGTCACCTAGTGCAG”, for which the binding signal was 8550 fluorescence intensity (a.u.).
Turning to “GCTAGCGCTGCCGCCCTACTCTTGATCCTAAATATTCATTCGGAGTCACCTAGTGCAG”, the binding signal was 8210 fluorescence intensity (a.u.).
In the case of “AGTATATAGTTGTGTTTAACCCATTCAATGAATTATTAGTCGGAGTCACCTAGTGCAG”, the binding signal is 8180 fluorescence intensity (a.u.).
